From patent US20070054353A1, “Nuclear receptor transcriptional corepressor and uses thereof” (priority 2002, published 2007)
Residue numbers refer to the chain shown, from its start. These are yes or no findings as the source states them, for the method shown. For some assays here: Binding seen in cells or lysates may run through a third protein. Some results given as binding are weak or reduced against the parent protein; the word gives no strength. For some assays here: Where a sequence is shown, tags or fusion partners need not be part of it.

Chains of the proteins cited; added tags and fusions are not shown. Lines headed by an entry give the natural chain unless they say otherwise; changes in a name come on top. Residues count along the entry.
UniProt P03372: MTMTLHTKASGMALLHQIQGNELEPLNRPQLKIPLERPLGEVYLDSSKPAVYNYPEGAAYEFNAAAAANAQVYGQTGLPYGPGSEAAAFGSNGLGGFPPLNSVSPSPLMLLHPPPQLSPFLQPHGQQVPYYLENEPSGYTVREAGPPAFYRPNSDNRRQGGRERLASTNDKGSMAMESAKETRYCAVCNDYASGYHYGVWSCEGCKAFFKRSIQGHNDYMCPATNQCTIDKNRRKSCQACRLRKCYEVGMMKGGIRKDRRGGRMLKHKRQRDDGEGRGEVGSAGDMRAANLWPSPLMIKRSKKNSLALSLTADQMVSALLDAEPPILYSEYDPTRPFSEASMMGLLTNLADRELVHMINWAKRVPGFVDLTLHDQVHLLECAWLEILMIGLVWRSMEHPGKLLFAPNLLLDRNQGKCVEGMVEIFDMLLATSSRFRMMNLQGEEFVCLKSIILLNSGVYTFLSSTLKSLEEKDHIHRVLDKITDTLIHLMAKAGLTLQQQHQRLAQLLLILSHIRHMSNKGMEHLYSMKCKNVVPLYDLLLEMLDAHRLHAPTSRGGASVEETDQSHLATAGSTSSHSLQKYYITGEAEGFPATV
GST-ERα-LBD: residues 282-595 of P03372
UniProt O15379: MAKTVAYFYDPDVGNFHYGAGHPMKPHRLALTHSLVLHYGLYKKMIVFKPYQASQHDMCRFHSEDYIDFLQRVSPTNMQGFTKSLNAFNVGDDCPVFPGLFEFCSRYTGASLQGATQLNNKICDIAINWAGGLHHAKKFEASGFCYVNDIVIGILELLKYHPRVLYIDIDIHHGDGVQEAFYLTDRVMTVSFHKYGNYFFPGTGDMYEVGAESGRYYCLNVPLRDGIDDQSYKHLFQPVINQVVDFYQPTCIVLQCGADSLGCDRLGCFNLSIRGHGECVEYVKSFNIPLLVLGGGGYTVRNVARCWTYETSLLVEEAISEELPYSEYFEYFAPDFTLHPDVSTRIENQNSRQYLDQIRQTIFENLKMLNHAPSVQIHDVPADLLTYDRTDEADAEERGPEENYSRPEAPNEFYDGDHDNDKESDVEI
UniProt Q9UBN7: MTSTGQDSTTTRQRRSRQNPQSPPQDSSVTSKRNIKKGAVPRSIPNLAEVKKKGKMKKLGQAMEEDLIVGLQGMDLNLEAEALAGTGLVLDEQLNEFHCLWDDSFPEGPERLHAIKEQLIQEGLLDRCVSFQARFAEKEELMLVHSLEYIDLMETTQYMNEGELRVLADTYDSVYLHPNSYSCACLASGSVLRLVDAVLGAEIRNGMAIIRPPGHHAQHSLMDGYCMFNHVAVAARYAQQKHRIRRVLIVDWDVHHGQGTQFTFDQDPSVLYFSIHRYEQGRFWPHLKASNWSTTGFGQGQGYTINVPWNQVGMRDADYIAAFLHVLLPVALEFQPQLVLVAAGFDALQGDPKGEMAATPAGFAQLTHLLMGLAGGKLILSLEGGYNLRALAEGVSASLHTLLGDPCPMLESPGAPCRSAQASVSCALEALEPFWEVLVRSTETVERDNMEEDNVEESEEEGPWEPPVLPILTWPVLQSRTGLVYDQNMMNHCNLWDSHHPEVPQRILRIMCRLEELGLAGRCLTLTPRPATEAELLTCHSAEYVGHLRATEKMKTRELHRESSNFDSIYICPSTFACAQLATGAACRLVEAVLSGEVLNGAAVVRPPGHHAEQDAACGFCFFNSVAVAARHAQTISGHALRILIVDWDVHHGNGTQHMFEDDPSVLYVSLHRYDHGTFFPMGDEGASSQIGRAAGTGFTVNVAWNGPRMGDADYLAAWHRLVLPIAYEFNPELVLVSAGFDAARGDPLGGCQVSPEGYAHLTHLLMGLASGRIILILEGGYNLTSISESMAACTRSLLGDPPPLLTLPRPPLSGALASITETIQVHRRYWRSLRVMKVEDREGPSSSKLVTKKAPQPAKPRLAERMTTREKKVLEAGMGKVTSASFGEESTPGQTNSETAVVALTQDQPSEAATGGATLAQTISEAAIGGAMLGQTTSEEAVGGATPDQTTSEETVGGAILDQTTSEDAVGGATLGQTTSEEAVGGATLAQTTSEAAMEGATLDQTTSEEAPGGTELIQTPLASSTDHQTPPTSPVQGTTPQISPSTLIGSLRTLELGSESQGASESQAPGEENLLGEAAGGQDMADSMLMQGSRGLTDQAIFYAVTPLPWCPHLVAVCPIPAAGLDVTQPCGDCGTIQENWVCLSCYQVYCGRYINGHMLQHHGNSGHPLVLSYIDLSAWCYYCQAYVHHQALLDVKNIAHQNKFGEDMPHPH
UniProt Q92731, residues 248-530: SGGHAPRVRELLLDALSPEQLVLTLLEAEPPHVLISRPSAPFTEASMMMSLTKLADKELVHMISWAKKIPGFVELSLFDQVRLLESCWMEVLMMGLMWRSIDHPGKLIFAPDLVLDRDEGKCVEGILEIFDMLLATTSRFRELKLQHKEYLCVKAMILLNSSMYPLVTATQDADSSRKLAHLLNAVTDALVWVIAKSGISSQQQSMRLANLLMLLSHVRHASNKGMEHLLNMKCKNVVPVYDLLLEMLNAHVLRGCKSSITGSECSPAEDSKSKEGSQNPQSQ

Columns and labels:
[1] = target: ERα-LBD bait (yeast two-hybrid) (UniProt P03372); test: yeast two-hybrid
[2] = target: ERα (estrogen receptor α) (human) (UniProt P03372); test: coimmunoprecipitation with anti-ERα antibody, MCF-7 extracts
HDAC3 (human) [3] = target: HDAC3 (human) (UniProt O15379); test: coimmunoprecipitation, MCF-7 extracts (identical results in HEK293 extracts)
[4] = target: CtBP2 (C-terminal binding protein 2) (human) (UniProt P56545); test: coimmunoprecipitation, MCF-7 extracts
HDAC6 (human) [5] = target: HDAC6 (human) (UniProt Q9UBN7); test: coimmunoprecipitation, MCF-7 extracts
[6] = target: ERα (estrogen receptor α) (human) (UniProt P03372); test: coimmunoprecipitation
[7] = target: ERα-LBD bait (yeast two-hybrid) (UniProt P03372); test: yeast two-hybrid screen with ERα-LBD bait, 10^-6 M estradiol
HDAC6 (human) [8] = target: HDAC6 (human) (UniProt Q9UBN7); test: coimmunoprecipitation with anti-HDAC6 antibody, MCF-7 extracts
[9] = target: CtBP2 (C-terminal binding protein 2) (human) (UniProt P56545); test: coimmunoprecipitation with antibody recognizing CtBP1 and CtBP2, MCF-7 extracts (precipitates mostly CtBP1; similar in HEK293)
GST-ERα-LBD = GST-ERα-LBD (UniProt P03372); test: GST pull-down
HDAC3 (human) [10] = target: HDAC3 (human) (UniProt O15379); test: coimmunoprecipitation with anti-HDAC3 antibody, MCF-7 extracts
[11] = target: CtBP2 (C-terminal binding protein 2) (human) (UniProt P56545); test: coimmunoprecipitation with anti-CtBP antibody (recognizes CtBP1 and CtBP2), MCF-7 extracts
ERβ = ERβ (UniProt Q92731); test: GST pull-down (GST-LCoR by the legend of FIG. 4G)
HDAC3 (human) [12] = target: HDAC3 (human) (UniProt O15379); test: GST pull-down, in vitro translated HDAC
HDAC6 (human) [13] = target: HDAC6 (human) (UniProt Q9UBN7); test: GST pull-down, in vitro translated HDAC
VDR = target: T1, VDR (UniProt P11473); test: GST pull-down (GST-LCoR by the legend of FIG. 4H)
T1 sequence (looked up): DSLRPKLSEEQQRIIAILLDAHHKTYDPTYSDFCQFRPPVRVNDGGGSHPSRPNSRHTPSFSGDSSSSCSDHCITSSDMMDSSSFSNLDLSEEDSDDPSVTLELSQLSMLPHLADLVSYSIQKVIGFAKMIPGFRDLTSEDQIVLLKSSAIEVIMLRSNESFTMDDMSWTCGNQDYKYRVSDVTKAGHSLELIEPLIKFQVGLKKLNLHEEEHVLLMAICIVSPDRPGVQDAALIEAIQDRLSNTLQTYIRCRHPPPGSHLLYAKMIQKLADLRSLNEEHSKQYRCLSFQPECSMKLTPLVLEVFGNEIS

[14] = target: CtBP2 (C-terminal binding protein 2) (human) (UniProt P56545); test: coimmunoprecipitation with anti-CtBP antibody, transfected MCF-7 cells
HA-HDAC3 [15] = target: HA-HDAC3 (UniProt O15379); test: reciprocal coimmunoprecipitation, transfected COS-7 cells
HA-HDAC3 [16] = target: HA-HDAC3 (UniProt O15379); test: coimmunoprecipitation with anti-Flag antibody, transfected COS-7 cells
HA-Flag-HDAC6 [17] = target: HA-Flag-HDAC6 (UniProt Q9UBN7); test: as above
HA-Flag-HDAC6 [18] = target: HA-Flag-HDAC6 (UniProt Q9UBN7); test: coimmunoprecipitation, transfected COS-7 cells

Measured: binding

B1: LCoR (ligand-dependent corepressor) (protein)
chain: MQRMIQQFAAEYTSKNSSTQDPSQPNSTKNQSLPKASPVTTSPTAATTQNPVLSKLLMADQDSPLDLTVRKSQSEPSEQDGVLDLSTKKSPCAGSTSLSHSPGCSSTQGNGRPGRPSQYRPDGLRSGDGVPPRSLQDGTREGFGHSTSLKVPLARSLQISEELLSRNQLSTAASLGPSGLQNHGQHLILSREASWAKPHYEFNLSRMKFRGNGALSNISDLPFLAENSAFPKMALQAKQDGKKDVSHSSPVDLKIPQVRGMDLSWESRTGDQYSYSSLVMGSQTESALSKKLRAILPKQSRKSMLDAGPDSWGSDAEQSTPGQPYPTSDQEGDPGSKQPRKKRGRYRQYNSEILEEAISVVMSGKMSVSKAQSIYGIPHSTLEYKVKERLGTLKNPPKKKMKLMRSEGPDVSVKIELDPQGEAAQSANESKNE
not listed: ERβ | HDAC3 (human) [12] | HDAC6 (human) [13] | VDR | [14] | HA-HDAC3 [15] | HA-HDAC3 [16] | HA-Flag-HDAC6 [17] | HA-Flag-HDAC6 [18]
binds: all other assays above

B2: GST-LCoR (protein, not shown: a dimerising Fc or GST)
chain: B1 chain
binds: ERβ | HDAC3 (human) [12] | HDAC6 (human) [13] | VDR

B3: GST-LSKAA (protein, not shown: a dimerising Fc or GST)
chain: B1 chain with L56A, L57A
binds: HDAC3 (human) [12] | HDAC6 (human) [13]

B4: Flag-LCoR (protein, not shown: small tags and cut ends)
chain: B1 chain
binds: [14] | HA-HDAC3 [15] | HA-HDAC3 [16]

B5: Flag-LSKAA (protein, not shown: small tags and cut ends)
chain: B1 chain with L56A, L57A
binds: HA-HDAC3 [15] | HA-HDAC3 [16]

B6: HA-LCoR (protein, not shown: small tags and cut ends)
chain: B1 chain
binds: HA-Flag-HDAC6 [17] | HA-Flag-HDAC6 [18]

B7: HA-LCoR-LSKAA (protein, not shown: small tags and cut ends)
chain: B1 chain with L56A, L57A
binds: HA-Flag-HDAC6 [17] | HA-Flag-HDAC6 [18]

B8: Flag-m1 (Flag-tagged LCoR mutated in CtBP binding site 1) (protein, not shown: small tags and cut ends)
chain: MQRMIQQFAAEYTSKNSSTQDPSQPNSTKNQSLPKASPVTTSPTAATTQNPVLSKLLMADQDSKSQSEPSEQDGVLDLSTKKSPCAGSTSLSHSPGCSSTQGNGRPGRPSQYRPDGLRSGDGVPPRSLQDGTREGFGHSTSLKVPLARSLQISEELLSRNQLSTAASLGPSGLQNHGQHLILSREASWAKPHYEFNLSRMKFRGNGALSNISDLPFLAENSAFPKMALQAKQDGKKDVSHSSPVDLKIPQVRGMDLSWESRTGDQYSYSSLVMGSQTESALSKKLRAILPKQSRKSMLDAGPDSWGSDAEQSTPGQPYPTSDQEGDPGSKQPRKKRGRYRQYNSEILEEAISVVMSGKMSVSKAQSIYGIPHSTLEYKVKERLGTLKNPPKKKMKLMRSEGPDVSVKIELDPQGEAAQSANESKNE
binds: [14]

B9: Flag-m2 (Flag-tagged LCoR mutated in CtBP binding site 2) (protein, not shown: small tags and cut ends)
chain: MQRMIQQFAAEYTSKNSSTQDPSQPNSTKNQSLPKASPVTTSPTAATTQNPVLSKLLMADQDSPLDLTVRKSQSEPSEQDGKSPCAGSTSLSHSPGCSSTQGNGRPGRPSQYRPDGLRSGDGVPPRSLQDGTREGFGHSTSLKVPLARSLQISEELLSRNQLSTAASLGPSGLQNHGQHLILSREASWAKPHYEFNLSRMKFRGNGALSNISDLPFLAENSAFPKMALQAKQDGKKDVSHSSPVDLKIPQVRGMDLSWESRTGDQYSYSSLVMGSQTESALSKKLRAILPKQSRKSMLDAGPDSWGSDAEQSTPGQPYPTSDQEGDPGSKQPRKKRGRYRQYNSEILEEAISVVMSGKMSVSKAQSIYGIPHSTLEYKVKERLGTLKNPPKKKMKLMRSEGPDVSVKIELDPQGEAAQSANESKNE
binds: [14]
